No signal at the amounts used counts as a negative. At least one verdict rests on a figure or table, not on a statement of the authors. Where a protein sequence is shown, tags need not be part of it.
Test system: T1, Aux1LS20-His6 (p56) (Bacillus subtilis plasmid pLS20cat)
T1 sequence (looked up): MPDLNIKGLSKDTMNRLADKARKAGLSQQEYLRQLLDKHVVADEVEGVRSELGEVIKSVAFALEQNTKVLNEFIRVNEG
Assay: EMSA
Details: 90 nM protein; EMSA: 20 mM Tris-HCl pH 8, 1 mM EDTA, 5 mM MgCl2, 0.5 mM DTT, 100 mM KCl, 10% glycerol, 0.05 mg/ml BSA; 20 min 30°C then 10 min on ice; 2% agarose, 0.5x TBE, 4°C; recombinant protein; residues 1-79; protein details: C-terminal His6; probe letters rebuilt from the primers and the genome

ACGAGCAAAGAAATGCTAGGTGAACTTGAAAAACGGAATGAATTATTGAAGAAAAGAAAGAGCAATCTCGTCATCGAAGACTAAATTTCTGTATGGAAAACAGTTATTTTTCGTGTGCATAAAATAAAGATTTATGTGCATTTAGTTCTAAATCACCTAAATAATGGTTGAACATAAATGTTTTTTTTATGTGCATTCAGC (double strand) [F21]
binding result: no binding

CGGCATTTGTTAACGCTCCTTTTCATCGATTTCTGCACATTACTTTGCAACGATCTGTTCAAATAAGTGTTTCTTTTTCCAAGGCTTTTTGCGGCAGCAAAAAGCCGGCCCCCGATTCCGAAGGAAGGAGGGGGTGGAAAAGGAAAGAGCATAAGGGGAAACTGGCACCATTTGCATGGTGAAACCGCAGTGCGGTTTGT (double strand) [F30]
binding result: no binding

GCAAATGGTGCCAGTTTCCCCTTATGCTCTTTCCTTTTCCACCCCCTCCTTCCTTCGGAATCGGGGGCCGGCTTTTTGCTGCCGCAAAAAGCCTTGGAAAAAGAAACACTTATTTGAACAGATCGTTGCAAAGTAATGTGCAGAAATCGATGAAAAGGAGCGTTAACAAATGCCGGATCTCAACATCAAAGGTCTTTCAA (double strand) [F31]
binding result: no binding

GCTCTTTCCTTTTCCACCCCCTCCTTCCTTCGGAATCGGGGGCCGGCTTTTTGCTGCCGCAAAAAGCCTTGGAAAAAGAAACACTTATTTGAACAGATCGTTGCAAAGTAATGTGCAGAAATCGATGAAAAGGAGCGTTAACAAATGCCGGATCTCAACATCAAAGGTCTTTCAAAAGATACAATGAATAGGCTTGCGGA (double strand) [F32]
binding result: no binding

TGAGAAAGTCCTGCCTTCCTCGCTTTATCCGCAAGCCTATTCATTGTATCTTTTGAAAGACCTTTGATGTTGAGATCCGGCATTTGTTAACGCTCCTTTTCATCGATTTCTGCACATTACTTTGCAACGATCTGTTCAAATAAGTGTTTCTTTTTCCAAGGCTTTTTGCGGCAGCAAAAAGCCGGCCCCCGATTCCGAAGG (double strand) [F33]
binding result: no binding

Source: paper PMC5675868
